Experimental data: patent publication US7445891B2, “Nucleic acid triggered catalytic drug and probe release” (priority 2001, dated 2008)
For part of these data: At least one read-out could not be matched to a standard name with certainty. For part of these data: For at least one compound, name, drawing or mass did not settle the structure.

Experiments:
[1] = Imidazole catalyzed hydrolysis of esters (imidazole alone); assay type: physicochemical; details: pH 7, 0.5 M NaCl, 20° C.
[2] = Hydrolysis of esters in human serum; details: 25° C.

Compound | ko ([1]; background hydrolysis rate constant) | klm ([1]; imidazole catalyzed rate constant) | half life of hydrolysis in human serum [2]
CC(C)[C@H](C(=O)Oc1ccc([N+](=O)[O-])cc1)N1C(=O)C=CC1=O [11a, N-maleoyl-D-valine p-nitrophenyl ester] | 4.1 ± 2 ′ 10^−6 s^−1 | 1.4 ± 0.04 ′ 10^−2 M^−1s^−1 | 
N-maleoyl-D-valine coumarin ester [D-11c] |  |  | about 3 hours
